Measured data: PubChem BioAssay AID743454 (Peter MacCallum Cancer Centre, 2014)
The whole screen tested about 18,000 reagents; shown is a random part of them. In the full data, 450 (2.5%) were called active. 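Single biological run; no consistent viability z cut-off exists, so the class columns, not z-scores, define the calls.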 No sequences are given here.

Purpose: 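Genes whose loss kills vorinostat-resistant colon cancer cells under vorinostat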 (primary screen)
Cell system: human HCT116-VR colon cancer cells, selected for vorinostat resistance
Reagents: siRNA pool against human genes, 40 nM siRNA pool
Time to read-out: vorinostat for 24 h, read-out about 72 h after transfection
Conditions: vorinostat at 2.5 µM final
Detection: 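Cell viability by CellTiter-Fluor and caspase 3/7 activity by luminescence, each scaled to mock wells per plate, duplicates averaged, then robust z-scored over all plates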
Scale: viability robust z-score: higher = more viable cells than screen typical; caspase robust z-score: higher = more caspase 3/7 activity than screen typical
Rule for the call: 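Hits are knock-downs in viability class RV1/RV2 or caspase class CA1/CA2, excluding ones that killed cells in the no-drug cell-count arm; hits then retested with single siRNAs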

| Target gene | viability hit class | caspase hit class | viability robust z-score | caspase robust z-score | Call |
| --- | --- | --- | --- | --- | --- |
| MYO10 (GeneID 4651) | no change | no change | 1.19 | -0.98 | inactive |
| CD300A (GeneID 11314) | no change | no change | 0.91 | 0.19 | inactive |
| OR10AD1 (GeneID 121275) | no change | no change | 1.11 | -0.64 | inactive |
| P2RX7 (GeneID 5027) | no change | no change | -0.18 | -0.92 | inactive |
| ZNF257 (GeneID 113835) | no change | no change | 0.94 | -0.48 | inactive |
| MS4A10 (GeneID 341116) | no change | no change | 0.35 | 2.91 | inactive |
| OR10J1 (GeneID 26476) | no change | no change | -0.25 | -0.18 | inactive |
| CMTM3 (GeneID 123920) | no change | no change | 0.64 | 0.06 | inactive |
| CYP2A6 (GeneID 1548) | no change | no change | 1.82 | -0.05 | inactive |
| OR5A2 (GeneID 219981) | no change | no change | 0.12 | 0.76 | inactive |
| NARS2 (GeneID 79731) | no change | no change | 0.26 | 1.05 | inactive |
| CT47A8 (GeneID 728049) | no change | no change | -0.44 | 1.98 | inactive |
| SOX13 (GeneID 9580) | no change | no change | -0.68 | -0.46 | inactive |
| PEX11A (GeneID 8800) | no change | no change | -0.56 | 4.22 | inactive |
| EXOSC3 (GeneID 51010) | no change | no change | -0.76 | -0.64 | inactive |
| CLTA (GeneID 1211) | no change | no change | -0.99 | 0.17 | inactive |
| ACVR1C (GeneID 130399) | no change | CA1 (caspase activation) | 0.14 | 5.46 | active |
| GJC3 (GeneID 349149) | no change | no change | 0.5 | 1.47 | inactive |
| VMO1 (GeneID 284013) | no change | no change | -1.1 | 0 | inactive |
| NDRG3 (GeneID 57446) | no change | no change | 1.36 | -0.54 | inactive |
| CD8B (GeneID 926) | no change | no change | 1.8 | 0.94 | inactive |
| EI24 (GeneID 9538) | no change | no change | 0.36 | 0.3 | inactive |
| TWF1 (GeneID 5756) | no change | no change | 0.88 | 0.22 | inactive |

An excerpt from above, limited to “caspase hit class”.
SOX13 (GeneID 9580) = no change
PEX11A (GeneID 8800) = no change
